In patent US20080038248A1 (published 2008):
These are yes or no findings as the source states them, for the method shown. Some entries that bind do so weakly or less than the wild type. Sequences can lack the tags named with a protein.

T1: UL16 Fc fusion (human cytomegalovirus; human) (UniProt P16757)
T1 sequence: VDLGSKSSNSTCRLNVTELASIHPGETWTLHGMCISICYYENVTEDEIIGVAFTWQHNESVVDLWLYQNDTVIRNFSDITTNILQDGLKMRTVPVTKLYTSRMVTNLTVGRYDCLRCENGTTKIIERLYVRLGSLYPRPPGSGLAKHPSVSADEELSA

T2: full-length RAET1G, N-terminal Flag-tagged fusion protein, on transfected cells (human) (UniProt Q6H3X3)
T2 sequence (looked up): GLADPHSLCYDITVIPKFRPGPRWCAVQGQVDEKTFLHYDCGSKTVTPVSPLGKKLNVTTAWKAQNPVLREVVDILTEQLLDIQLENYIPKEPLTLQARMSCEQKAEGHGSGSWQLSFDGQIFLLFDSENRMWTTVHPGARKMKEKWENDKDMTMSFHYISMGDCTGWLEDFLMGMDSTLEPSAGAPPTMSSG

B1: soluble recombinant extracellular domain of RAET1E, 6-Histidine N-terminal fusion (ligand, human)
chain: HHHHHHHSLCFNFTIKSLSRPGQPWCEAQVFLNKNLFLQYNSDNNMVKPLGLLGKKVYATSTWGELTQTLGEVGRDLRMLLCDIKPQIKTSDPSTLQVEMFCQREAERCTGASWQFATNGEKSLLFDAMNMTWTVINHEASKIKETWKKDRGLEKYFRKLSKGDCDHWLREFLGHWEAMPEPTVSPVNASDIHWSSSSLPD
B2: NKG2D-Fc fusion protein (Fc fusion, human, UniProt P26718 73-216, looked up)
chain: IWSAVFLNSLFNQEVQIPLTESYCGPCPKNWICYKNNCYQFFDESKNWYESQASCMSQNASLLKVYSKEDQDLLKLVKSYHWMGLVHIPTNGSWQWEDGSILSPNLLTIIEMQKGDCALYASSFKGYIENCSTPNTYICMQRTV
notes: Produced in 293T cells, purified on Protein A. 'The fusion was C-terminal to human IgG1 hinge-CH2-CH3 domains'; also called recombinant soluble Fc fusion protein of NKG2D; not shown: human IgG1 hinge-CH2-CH3 domains, N-terminal to NKG2D (in pcDNA3.0)
B3: soluble recombinant extracellular domain of RAET1G, 6-Histidine N-terminal fusion (ligand, human)
chain: HHHHHHGLADPHSLCYDITVIPKFRPGPRWCAVQGQVDEKTFLHYDCGSKTVTPVSPLGKKLNVTTAWKAQNPVLREVVDILTEQLLDIQLENYIPKEPLTLQARMSCEQKAEGHGSGSWQLSFDGQIFLLFDSENRMWTTVHPGARKMKEKWENDKDMTMSFHYISMGDCTGWLEDFLMGMDSTLEPSAGAPPTMSSGTAQPR
notes: extracellular domain; also called 6-His tagged recombinant RAET1G
B4: soluble recombinant extracellular domain of ULBP1, 6-Histidine N-terminal fusion (ligand, human)
chain: HHHHHHGWVDTHCLCYDFIITPKSRPEPQWCEVQGLVDERPFLHYDCVNHKAKAFASLGKKVNVTKTWEEQTETLRDVVDFLKGQLLDIQVENLIPIEPLTLQARMSCEHEAHGHGRGSWQFLFNGQKFLLFDSNNRKWTALHPGAKKMTEKWEKNRDVTMFFQKISLGDCKMWLEEFLMYWEQMLDPTKPPSLAPG

How the values were obtained:
[1] = target: T1, UL16 Fc fusion (human cytomegalovirus; human); assay: SPR (BIACore 2000)
[2] = target: T1, UL16 Fc fusion (human cytomegalovirus; human); assay: SPR (BIACore) plots, FIG. 14
[3] = target: T2, full-length RAET1G, N-terminal Flag-tagged fusion protein, on transfected cells (human); assay: flow cytometry on transfected COS-7 cells, anti-human IgG FITC detection
[4] = target: T2, full-length RAET1G, N-terminal Flag-tagged fusion protein, on transfected cells (human); assay: flow cytometry on transfected COS-7 cells, NKG2D-Fc and anti human Fc-FITC (FIG. 11)
NKG2D-Fc fusion protein = target: B2; assay: SPR (BIACore) plots, FIG. 14

Binder	binding [1]	binding [2]	binding [3]	binding [4]	binding (NKG2D-Fc fusion protein)
B1	binds	binds	–	–	–
B2	–	–	binds	binds	–
B3	binds	binds	–	–	binds
B4	binds	–	–	–	–
